Results reported in PubChem BioAssay AID445 (National Center for Advancing Translational Sciences (NCATS), 2006).
The list shows a part of the results. The main result of the screen is listed elsewhere. These columns were measured beside it and carry no call. Compounds called inactive in the main read-out are mostly missing here. Words in brackets tell the shape of the fitted curve; partial curves, single points and poor fits give uncertain potencies.

Test: IkB Signaling
Settings: ABC-DLBCL IkBa-CBG/CBR dual luciferase ratio (green luciferase fused to IkBa over red control in OCI-Ly3 lymphoma cells), 4 h
How it was run: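 In this assay, an IκBα–CBG68 fusion accumulates when IKK-driven degradation is blocked; native CBR normalizes for cell number. OCI-Ly3 cells were treated 4 h with compound and doxycycline, then green and red light read after Chroma-Glo addition.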

[1] = measured here: control luc red channel unless noted
[2] = measured here: IkB-luc green channel
[3] = measured here: control luc red channel

Q: With `C#CCSc1nnc(-c2ccccc2)c(=O)[nH]1` as the molecule, how does the AC50 [1] read?
A: 5.01 µM [falling, partial curve]

Q: Which AC50 [1] does the source give for `COc1ccc(-c2nc(CS(=O)CC(=O)NCc3ccccc3Cl)c(C)o2)cc1OC` (configuration not stated) here?
A: 3.16 µM [rising, partial curve, poor fit]

Q: For `Cn1c(C(=O)Nc2cccc(Cl)c2)cc2c(=O)n(C)c3ccccc3c21`, which AC50 [1] is on record?
A: 3.16 µM [rising, partial curve]

Q: For `Cc1ccc(-c2cn3c(n2)sc2cc(C(=O)NC4CCCCCC4)ccc23)c(C)c1`, which AC50 [1] is on record?
A: 15.8 µM [falling, partial curve]

Q: For `Cc1cccc(NC(c2nnc(-c3ccccc3)o2)c2ccc(F)cc2Cl)c1C` (configuration not stated), which AC50 [1] is on record?
A: 20 µM [falling, partial curve]

Q: For `Cc1oc2c(c(C)cc3oc(=O)c(CC(=O)NCCc4ccc(Cl)cc4)c(C)c32)c1C`, which AC50 [1] is on record?
A: 3.98 µM [falling, single point]

Q: For `COc1cccc(-c2cn3c(n2)sc2cc(C(=O)NCCc4ccccc4)ccc23)c1`, which AC50 [1] is on record?
A: 20 µM [falling, partial curve]

Q: For `CCCN(C(=O)Cn1nc(Cc2cccnc2)c2ccccc2c1=O)c1ccc(C(C)C)cc1`, which AC50 [1] is on record?
A: 31.6 µM [falling, single point]

Q: For `CCOc1ccc(CCNC(c2nnc(-c3ccccc3)o2)c2ccccc2Cl)cc1OCC` (configuration not stated), which AC50 [1] is on record?
A: 25.1 µM [falling, single point]

Q: With `CCCn1c2ccc(C)cc2c2nnc(SCCN3CCCCC3)nc21` as the molecule, how does the AC50 [1] read?
A: 0.398 µM [falling, partial curve, poor fit]

Q: Which AC50 [1] does the source give for `COc1ccc(CCNC(=O)c2cc(-c3ccc(C)c(C)c3)nc3ccccc23)cc1OC` here?
A: 7.94 µM [falling, partial curve]

Q: For `O=C(CN1C(=O)CC(c2ccco2)Sc2ccccc21)Nc1ccc(OC(F)(F)F)cc1` (configuration not stated), which AC50 [1] is on record?
A: 2.51 µM [falling, partial curve]

Q: For `O=C(NCc1ccc2c(c1)OCO2)c1ccc(-c2ccc(Cl)cc2)o1`, which AC50 [1] is on record?
A: 12.6 µM [falling, partial curve]

Q: For `Cc1nc2c(ccc3nc(NC(=O)c4ccc5c(c4)OCCO5)sc32)s1`, which AC50 [1] is on record?
A: 0.0794 µM [falling, full curve, poor fit]

Q: For `CC1=C(C(=O)OC2CCCCCC2)C(c2c(Cl)cccc2Cl)CC(=O)N1` (configuration not stated), which AC50 [1] is on record?
A: 25.1 µM [falling, partial curve]

Q: For `Cc1cccc(NC(=O)c2ccc(F)c(S(=O)(=O)N3CCN(c4ccc(F)cc4)CC3)c2)c1`, which AC50 [1] is on record?
A: 15.8 µM [falling, single point]

Q: For `Cc1ccc(-c2cn3c(n2)sc2cc(C(=O)NC4CCCCC4)ccc23)cc1`, which AC50 [1] is on record?
A: 20 µM [falling, partial curve]

Q: Which AC50 [1] does the source give for `CCOc1ccccc1NC(=O)c1cn(C2CCCCC2)c(=O)c2c1c1ccccc1n2C` here?
A: 3.16 µM [falling, full curve]

Q: With `COc1ccc(CCNC(=O)CCn2c(=O)c3cccn3c3ccc(F)cc32)cc1OC` as the molecule, how does the AC50 [1] read?
A: 39.8 µM [falling, single point]

Q: Which AC50 [1] does the source give for `CCOC(=O)c1ccc(CN(Cc2ccc(Cl)cc2Cl)S(=O)(=O)c2cccc(Cl)c2)cc1` here?
A: 0.631 µM [falling, full curve]

Q: With `O=S1(=O)N=C(Nc2nc3c(s2)CCCC3)c2ccccc21` as the molecule, how does the AC50 [2] read?
A: 31.6 µM [rising, single point]

Q: What about the AC50 [3] of the same molecule?
A: 15.8 µM [falling, partial curve]

Q: For `O=C(O)CCSc1nnc(-c2ccc(Cl)cc2Cl)o1`, which AC50 [1] is on record?
A: 0.251 µM [falling, full curve]

Q: With `Cc1ccc2nc(N(Cc3cccnc3)C(=O)CCc3ccccc3)sc2c1` as the molecule, how does the AC50 [1] read?
A: 25.1 µM [falling, partial curve]

Q: Which AC50 [1] does the source give for `CCn1c(SCC(=O)Nc2nc(-c3ccccc3)cs2)nnc1-c1ccccc1` here?
A: 15.8 µM [falling, partial curve]

Q: Which AC50 [1] does the source give for `Cc1ccc(-n2nnnc2SCCNS(=O)(=O)c2ccccc2)cc1C` here?
A: 15.8 µM [falling, partial curve]

Q: With `Cc1nn(-c2ccccc2)c2sc(C(=O)N(CC(=O)NC3CCCC3)Cc3ccco3)cc12` as the molecule, how does the AC50 [1] read?
A: 31.6 µM [falling, single point]

Q: For `CCCCC(=O)Nc1cccc(-c2nc3ccccc3s2)c1`, which AC50 [1] is on record?
A: 20 µM [falling, partial curve]

Q: Which AC50 [1] does the source give for `Cc1cccc(-n2ccnc2SCC(=O)Nc2cc(C(F)(F)F)ccc2Cl)c1` here?
A: 39.8 µM [falling, single point]

Q: With `CCCCN(C)CC(O)Cn1cc(/C=C/C(=O)c2ccc(OCC)cc2)c2ccccc21` (configuration not stated) as the molecule, how does the AC50 [1] read?
A: 15.8 µM [falling, partial curve]

Q: For `O=C(NCc1ccc(F)cc1Cl)c1ccc(CSCc2ccccc2Cl)o1`, which AC50 [1] is on record?
A: 39.8 µM [falling, single point]

Q: With `Cc1ccc(NC(=O)c2cc(-c3cccs3)nc3ccccc23)c(C)c1` as the molecule, how does the AC50 [1] read?
A: 5.01 µM [falling, partial curve]

Q: For `CCCCN1C(=O)/C(=C2\SC(N3CCCCC3)=NC2=O)c2ccccc21`, which AC50 [1] is on record?
A: 31.6 µM [falling, single point]

Q: With `Cc1ccc(N2CCN(C(=O)Nc3cn(CC(C)C)c(=O)c4ccccc34)CC2)c(C)c1` as the molecule, how does the AC50 [1] read?
A: 39.8 µM [falling, single point]

Q: Which AC50 [2] does the source give for `CC(C)C(C(=O)Nc1ccccc1)N1C(=O)c2ccccc2C1=O` (configuration not stated) here?
A: 31.6 µM [rising, partial curve]

Q: And the AC50 [3]?
A: 3.98 µM [falling, partial curve]

Q: For `Cc1ccc(CNC(=O)c2ccc(CSCc3c(F)cccc3Cl)o2)cc1`, which AC50 [1] is on record?
A: 39.8 µM [falling, single point]

Q: With `COc1ccccc1NC(=O)N1CCOc2ccccc21` as the molecule, how does the AC50 [1] read?
A: 25.1 µM [falling, partial curve]

Q: For `COC(=O)c1cc2oc3ccccc3c2n1CC(=O)Nc1ccc(C)cc1Cl`, which AC50 [1] is on record?
A: 5.01 µM [falling, full curve]

Q: Which AC50 [1] does the source give for `CCn1c(C(=O)NCc2ccccc2)cc2sc(Cl)cc21` here?
A: 39.8 µM [falling, partial curve]

Q: For `Cc1ccc(CNC(=O)c2ccc(NC(=O)c3nsc4ccccc34)cc2)cc1`, which AC50 [1] is on record?
A: 0.251 µM [falling, full curve]

Q: For `CCCOc1ccc(CNC(=O)c2cc3oc4ccccc4c3n2C)cc1`, which AC50 [1] is on record?
A: 7.94 µM [falling, full curve, poor fit]
